The text below walks through data of PMC4764946.

By UniProt entry, the sequences of proteins in these tests, tags left out. Chains listed by the source or under a name are the forms on record and can include a tag or linker. Residues count along the entry.
UniProt P06790, residues 1-201: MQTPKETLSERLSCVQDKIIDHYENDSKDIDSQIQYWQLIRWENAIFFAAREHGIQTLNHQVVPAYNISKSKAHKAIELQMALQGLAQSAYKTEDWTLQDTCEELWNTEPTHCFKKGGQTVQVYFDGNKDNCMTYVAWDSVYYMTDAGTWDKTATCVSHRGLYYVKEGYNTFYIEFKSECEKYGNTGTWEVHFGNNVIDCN
MBP-fused procaspase-8 death effector domain-A (DED-A) (Q14790, residues 1-80): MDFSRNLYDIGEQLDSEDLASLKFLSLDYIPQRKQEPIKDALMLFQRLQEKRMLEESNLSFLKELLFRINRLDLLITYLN
MBP-fused procaspase-8 death effector domain-B (DED-B) (Q14790, residues 100-181): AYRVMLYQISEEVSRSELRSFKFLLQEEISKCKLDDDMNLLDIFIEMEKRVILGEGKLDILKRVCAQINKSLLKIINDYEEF

No constants are given. Whether binding was seen depends on the method and setting. Binding seen in cells or lysates may run through a third protein. Some entries that bind do so weakly or less than the wild type.

Assay [1] addresses HPV18 E2 transactivation domain (TAD), C-terminal his6 tag (human papillomavirus type 18 (HPV18)) (UniProt P06790). The assay can be described thus: pull-down; reverse pull-down: E2 TAD-his6 (bait) and MBP-fused DED construct (prey) co-expressed in E. coli BL21 (DE3); lysate in buffer-A passed over Ni-IDA resin; 12% SDS-PAGE, Coomassie.
Assay [2] has as its target MBP-fused procaspase-8 death effector domain-B (DED-B) (UniProt Q14790). The assay is described as follows: pull-down; MBP-fused DED construct (bait) and E2 TAD-his6 (prey) co-expressed in E. coli BL21 (DE3); lysate in buffer-A (20 mM Na2HPO4/NaH2PO4 pH 7.8, 250 mM NaCl, 0.1 mM DTT, 1% glycerol) passed over amylose resin; 12% SDS-PAGE, Coomassie or anti-E2 immunoblot. On the technique in general: In western blotting, separated proteins are transferred to a membrane and probed.

The target in assay [3] is MBP-fused procaspase-8 death effector domain-A (DED-A) (UniProt Q14790). The assay is described as above.

Take “MBP-fused procaspase-8 death effector domain-A (DED-A) (from UniProt Q14790 1-80) (domain or fragment)”: in assay [1], the binding result is “binds weakly”.

Consider “HPV18 E2 transactivation domain (TAD), C-terminal his6 tag (from UniProt P06790 1-201) (domain or fragment)”, for which the binding result in assay [2] is on record as “binds”; in assay [3] it was “binds weakly”.

“MBP-fused procaspase-8 death effector domain-B (DED-B) (from UniProt Q14790 100-181) (domain or fragment)”: the binding result in assay [1] was “binds”.
